{"source": "PubChem BioAssay AID1159578 – Peter MacCallum Cancer Centre | 2015", "screen": "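Knock-downs that alter how fast lymphatic endothelial cells migrate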 (primary screen)", "cells": "human lymphatic endothelial cells", "knock-down reagent": "siRNA pool against human genes, 40 nM", "duration": "48 h after transfection", "measurement": "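High-content imaging of dye-stained cells in a scratch assay measures filled wound area and nuclei per well; duplicate means given as ratio to mock and robust z-score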", "scale": "migration robust z-score: higher = faster migration into the scratch; nuclei per well: higher = more cells in the well", "rule for the call": "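Pools averaging fewer than 3300 nuclei are never called; remaining pools count as changed when migration robust z lies outside -2 to 2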", "calls": "active = migration changed; inactive = no migration change, or too few cells", "note": "Here is an unselected part of about 18,000 reagents. About 1,030 of them (5.7%) count as active. 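Inactive calls also include pools with fewer than 3300 nuclei, whose migration was not assessed.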 The raw values are shown without normalisation. Further read-outs or replicates are left out here. No sequences are given here."}
The opening 2 records as a preview:
{"gene":"POLR3H","migration robust z-score":1.84,"migration class with cell-count check":"migration z between -2 and 2; enough cells","nuclei per well, duplicate mean":5844,"Call":"inactive"}
{"gene":"GDF2","migration robust z-score":-1.85,"migration class with cell-count check":"migration z between -2 and 2; enough cells","nuclei per well, duplicate mean":4512,"Call":"inactive"}

The list itself, repeating the preview:
{"gene":"POLR3H","migration robust z-score":1.84,"migration class with cell-count check":"migration z between -2 and 2; enough cells","nuclei per well, duplicate mean":5844,"Call":"inactive"}
{"gene":"GDF2","migration robust z-score":-1.85,"migration class with cell-count check":"migration z between -2 and 2; enough cells","nuclei per well, duplicate mean":4512,"Call":"inactive"}
{"gene":"PPP1R14B","migration robust z-score":0.52,"migration class with cell-count check":"migration z between -2 and 2; enough cells","nuclei per well, duplicate mean":5977,"Call":"inactive"}
{"gene":"PTX3","migration robust z-score":0.62,"migration class with cell-count check":"migration z between -2 and 2; enough cells","nuclei per well, duplicate mean":5776,"Call":"inactive"}
{"gene":"ZNF546","migration robust z-score":-0.29,"migration class with cell-count check":"migration z between -2 and 2; enough cells","nuclei per well, duplicate mean":5546,"Call":"inactive"}
{"gene":"SACM1L","migration robust z-score":-0.75,"migration class with cell-count check":"migration z between -2 and 2; enough cells","nuclei per well, duplicate mean":5366,"Call":"inactive"}
{"gene":"SLC44A1","migration robust z-score":-1.48,"migration class with cell-count check":"migration z between -2 and 2; enough cells","nuclei per well, duplicate mean":4246,"Call":"inactive"}
{"gene":"ZBTB7B","migration robust z-score":0.31,"migration class with cell-count check":"migration z between -2 and 2; enough cells","nuclei per well, duplicate mean":5914,"Call":"inactive"}
{"gene":"NCAPD3","migration robust z-score":0.48,"migration class with cell-count check":"migration z between -2 and 2; enough cells","nuclei per well, duplicate mean":5298,"Call":"inactive"}
{"gene":"CMIP","migration robust z-score":-0.8,"migration class with cell-count check":"migration z between -2 and 2; enough cells","nuclei per well, duplicate mean":5792,"Call":"inactive"}
{"gene":"KIFBP","migration robust z-score":0.72,"migration class with cell-count check":"migration z between -2 and 2; enough cells","nuclei per well, duplicate mean":5674,"Call":"inactive"}
{"gene":"NUCKS1","migration robust z-score":0.34,"migration class with cell-count check":"migration z between -2 and 2; enough cells","nuclei per well, duplicate mean":4806,"Call":"inactive"}
{"gene":"PM20D1","migration robust z-score":-0.78,"migration class with cell-count check":"migration z between -2 and 2; enough cells","nuclei per well, duplicate mean":5891,"Call":"inactive"}
{"gene":"PDCL2","migration robust z-score":-0.12,"migration class with cell-count check":"migration z between -2 and 2; enough cells","nuclei per well, duplicate mean":4867,"Call":"inactive"}
{"gene":"PLXNC1","migration robust z-score":0.92,"migration class with cell-count check":"migration z between -2 and 2; enough cells","nuclei per well, duplicate mean":4966,"Call":"inactive"}
{"gene":"TCF4","migration robust z-score":-0.08,"migration class with cell-count check":"migration z between -2 and 2; enough cells","nuclei per well, duplicate mean":3841,"Call":"inactive"}
{"gene":"NLE1","migration robust z-score":0,"migration class with cell-count check":"migration z between -2 and 2; enough cells","nuclei per well, duplicate mean":5354,"Call":"inactive"}
{"gene":"MYB","migration robust z-score":0.73,"migration class with cell-count check":"migration z between -2 and 2; enough cells","nuclei per well, duplicate mean":6215,"Call":"inactive"}
{"gene":"POU2AF1","migration robust z-score":1.15,"migration class with cell-count check":"migration z between -2 and 2; enough cells","nuclei per well, duplicate mean":5306,"Call":"inactive"}
{"gene":"SLC11A2","migration robust z-score":0.36,"migration class with cell-count check":"migration z between -2 and 2; enough cells","nuclei per well, duplicate mean":4966,"Call":"inactive"}
{"gene":"PROM1","migration robust z-score":0.37,"migration class with cell-count check":"migration z between -2 and 2; enough cells","nuclei per well, duplicate mean":5559,"Call":"inactive"}
{"gene":"SPMIP6","migration robust z-score":0.54,"migration class with cell-count check":"migration z between -2 and 2; enough cells","nuclei per well, duplicate mean":5634,"Call":"inactive"}
{"gene":"KLHL13","migration robust z-score":-0.7,"migration class with cell-count check":"migration z between -2 and 2; enough cells","nuclei per well, duplicate mean":4578,"Call":"inactive"}
{"gene":"GCC1","migration robust z-score":-0.45,"migration class with cell-count check":"migration z between -2 and 2; enough cells","nuclei per well, duplicate mean":6556,"Call":"inactive"}
{"gene":"COA5","migration robust z-score":-0.27,"migration class with cell-count check":"migration z between -2 and 2; enough cells","nuclei per well, duplicate mean":5152,"Call":"inactive"}
{"gene":"BDKRB1","migration robust z-score":0.54,"migration class with cell-count check":"migration z between -2 and 2; enough cells","nuclei per well, duplicate mean":6820,"Call":"inactive"}
{"gene":"DMRTC2","migration robust z-score":0.23,"migration class with cell-count check":"migration z between -2 and 2; enough cells","nuclei per well, duplicate mean":5788,"Call":"inactive"}
